From PubChem BioAssay record AID1159506 (NCATS, 2015).

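Luminescence from an EWS-FLI1 target-promoter (NR0B1) reporter, set against a CMV-promoter reporter, two days after silencing single genes in TC32 Ewing sarcoma cells. Each siRNA was applied at 20 nM. A z-score of the log NR0B1-over-CMV signal, less the median of siRNAs with the same seed; more negative means a stronger specific loss of the NR0B1 reporter.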

This is part of the screen; most of the strongest results are not listed here. Sequences are the guide (antisense) strand, without overhang.

siRNA	gene	seed-corrected z-score
UUUCUUACAGCAGAUGUUG	INHBA	0.7593
UGUUUUAUCAGUACUAAUA	SDF2	0.4803
ACCUUUACUAUAGUGUUCC	EPT1	-0.771
UUCGUGUUAACUCUGCUAC	C7orf31	0.3272
UAUCUGUUCGAGAAUAUCU	PAWR	-0.574
UAUGCAUCUUGUAACGAUG	UBR1	-0.2674
AAAGUGACAUAUACGAGGC	ITFG2	-0.3521
UUCACACCCACGUAGACUU	NCF4	-0.3455
UCCUAGAUCACCAAUCUUC	WNK3	0.9568
AAACUCUUUCUUAACAAGC	GZMA	-0.1515
UGUCAGUGAGGUUUACUCC	TMPRSS5	0.1272
UAGACACUCAGAGUCGGUG	KCTD11	-0.2484
UAAGUCGCCUCAUCACCGG	YIF1B	0.1614
UGUGCAACAAUGCCGGGAG	MRGPRG-AS1	-0.1769
UCAGCAGUAAUUUUCGAGC	NXPE2	0.4569
UCUUUGACGAGACAGUUGC	BICD1	0.3675
UUCGAGUUGCUGUUGACCC	RAI1	-0.08596
UUUGGUAUAGGAGAGGCUC	SLC25A39	0.3999
UACUUGUUUAUAACUGAGG	ZNF585A	-1.065
UUGAAGAGCGAGUAAAUGC	KCNK12	0.5733
UUUCGUUAGCAUAUGUUCC	EMB	0.3284
UCCAUUAGGUCUUUGUUCU	TNNT3	-0.07962
UGACCAACCAGAGAAAAGG	PSENEN	0.4618
UUCGGGCUGCUGAUGAUGU	USP32	0.3099
AAACCAGACUUUGACCUGC	HOXB2	0.1466
UCAAUGAUAUCUGAUGCCG	CSPG5	-0.5177
UUUCAGAUCUCGGUAGACG	GRK5	0.06467
AGAGUAUAUGCUUAGAUUC	MYO3B	-0.2663
AAGAUUAAUAUGCCUGUCG	EPB41L4B	-0.08003
GACAAAACCAGCCCAGUCC	FAM195B	-0.3009
UUUAUUUCCAAGGAACUUG	LPCAT3	-0.5312
UAAACUAUCUUCUGAGUGC	BORCS7	0.07477
UCAGUCUUCACGGCUUUGC	TOMM22P5	0.3886
UUGCUCACAAUGUUCAUGG	GAPDHS	-0.5735
UCAGAUACAAAGACAGUGC	SFXN2	0.6911
AGGUGAGUCAUCCUCAUGG	SKP1P2	-0.02726
UCCGUGUUGAGCUUGAGAC	EPHA8	-0.1024
UGUACUAACAUGUCGCCUC	SENP1	0.1453
UAGGUUUCUAGUUUUCUCU	ZNRD1-AS1	-0.2142
AUGGACUUGACACCAGUGC	LOC342541	0.4212
UACUCUUUCUUGACCGUUC	DNAJB6	-0.7711
UUCUCAUACAUGUCCUUCC	ITPKC	-0.2086
ACUUCUAUUAAAGCCGUGC	PARP15	0.1949
AAUUCUACCUUUGCGAUUC	DNAH7	0.3163